# Screening data

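Genome-wide siRNA knockdown in TC32 Ewing sarcoma cells, comparing luciferase light from an NR0B1-promoter reporter with a CMV-promoter reporter 48 hours after transfection. Each siRNA was applied at 20 nM. A z-score of the log NR0B1-over-CMV signal, less the median of siRNAs with the same seed; more negative means a stronger specific loss of the NR0B1 reporter.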

The strongest results of the screen are mostly left out here. Sequences are the guide (antisense) strand, without overhang.

With UCUGAGAUCUGCUCAGCCG against SCO2 the assay gave seed-corrected z-score 0.1957.
With UGUCCAGUGAGUACUCUCC against ANXA2R the assay gave seed-corrected z-score 0.2177.
With UUUAUCUUCCUCGUACUUG against NEXN the assay gave seed-corrected z-score 0.1855.
With AGACUUCCACUGCACGACC against TMEM179B the assay gave seed-corrected z-score 0.1389.
With UGAUCCAUAAUUAACAACC against SLC24A4 the assay gave seed-corrected z-score -0.09373.
With UACUUCUCAGCUAUAUCUG against AFAP1L2 the assay gave seed-corrected z-score -0.2577.
With AAAGAUUUGGAUUCGCUUC against PLIN5 the assay gave seed-corrected z-score 0.2074.
With UCAGGGUAACUUGUCCUUG against C2orf91 the assay gave seed-corrected z-score -1.555.
With UUCAAGAAACUCAGUGUCC against PNMA2 the assay gave seed-corrected z-score -0.3417.
With ACGCAUAUCACAUAUAUCG against ZNF740 the assay gave seed-corrected z-score 0.4302.
With UUGGGUGUAAUUUCUAUGA against THBD the assay gave seed-corrected z-score -0.03481.
With AACUUUCAAAUAUCCAUAG against LINC01249 the assay gave seed-corrected z-score 0.0004198.
With UCUGGAAGUAAGAAAAGGC against KIAA0141 the assay gave seed-corrected z-score 0.4273.
With UGAUCAACUCCAGUGCUUG against HNRNPCP2 the assay gave seed-corrected z-score -0.06372.
With UAGAUACCGAUGGAUACUC against ZBTB11 the assay gave seed-corrected z-score 0.06163.
With UCUAGCUUGAGGAUCCUUC against ASB18 the assay gave seed-corrected z-score 0.05477.
With UCGAAUUUCGUUUCCCACC against OTUD6A the assay gave seed-corrected z-score 0.1679.
With UUAGGUAAGGAGAACUUGG against PRX the assay gave seed-corrected z-score 0.0967.
With UUGCUUCUUAUAUCAGCGU against TMSB15B the assay gave seed-corrected z-score -0.1455.
With UCCGAGUAGAUGGACAUGC against GRIN1 the assay gave seed-corrected z-score 1.826.
With UACGGUAGAGCAGAUGAGC against OR2M5 the assay gave seed-corrected z-score -0.9184.
With UACGCUUUGAGGCUGUACC against ABCG4 the assay gave seed-corrected z-score -0.1231.
With UGACUUGCGAUCCUGACUC against SAFB2 the assay gave seed-corrected z-score 0.6216.
With UGACCAUCAAGUAGGAGCC against PTPRU the assay gave seed-corrected z-score -0.1738.
With AAGGUGGUUCCUGCCUUGC against LOC441956 the assay gave seed-corrected z-score -1.688.
With UGAAUUUUCGCAGCUGCUC against RIIAD1 the assay gave seed-corrected z-score 1.107.
With UACCCGGCAACCAUUAAGG against PAPOLB the assay gave seed-corrected z-score 0.1521.
With UGAAUAUUGAGAUUUGUGC against GPSM3 the assay gave seed-corrected z-score -0.3932.
With UAAGCUUCUAAAUAGUUUC against RMI2 the assay gave seed-corrected z-score -0.706.
With UUGUCAUCAAGCUCGCUUC against DMP1 the assay gave seed-corrected z-score 0.4616.
With UAGUGUGCCGCAGGGUUUG against ADAMTS10 the assay gave seed-corrected z-score -0.6655.

Repeated from the top, 3 entries:

* UCUGAGAUCUGCUCAGCCG against SCO2 : seed-corrected z-score 0.1957
* UGUCCAGUGAGUACUCUCC against ANXA2R : seed-corrected z-score 0.2177
* UUUAUCUUCCUCGUACUUG against NEXN : seed-corrected z-score 0.1855

From PubChem BioAssay record AID1159506 (NCATS, 2015).